Results from patent US20070129402A1, “Sustained release formulations” (Eisai Research Institute, priority 2004, published 2007).
Counter-ions that a name gives are not always drawn. Like-named read-outs stand apart in the source and are kept apart here.

Columns and labels:
[1] = steady state, cited from earlier work
physchem = settings: 25 °C, pH 3, aqueous buffer
[2] = single oral dose of 5 mg, cited from earlier work

Structure (SMILES)	AUC(0-24) ([1]; 5 mg)	Cmax ([1]; 5 mg)	AUC(0-24) ([1]; 10 mg)	Cmax ([1]; 10 mg)	solubility (pH 6)	solubility (pH 8)	solubility (physchem)	tmax ([2]; first volunteer)	tmax ([2]; second volunteer)
COc1cc2c(cc1OC)C(=O)C(CC1CCN(Cc3ccccc3)CC1)C2 (stereo not drawn) [Donepezil, 1-benzyl-4-((5,6-dimethoxy-1-indanon)-2-yl)methylpiperidine]	634.8 ± 92.2 ng·h/mL	34.1 ± 7.3 ng/mL	1127.8 ± 195.9 ng·h/mL	60.5 ± 10.0 ng/mL					
COc1cc2c(cc1OC)C(=O)C(CC1CCN(Cc3ccccc3)CC1)C2 (stereo not drawn) [donepezil hydrochloride, 1-benzyl-4-((5,6-dimethoxy-1-indanon)-2-yl)methylpiperidine hydrochloride]					11 to 16 mg/mL	≤ 0.1 mg/mL	11 to 16 mg/mL	4 h	2 h
